Where a chain is given by its changes, count along the chain named. In names and notes the source's numbering stands. No constants are given. Whether binding was seen depends on the method and setting. Values belong to the binder of their own block, whether it stands above or below them.
Legend:
[1] = target: human 4E-T(1-68) C26AC50A (human) (UniProt Q9NRA8); test: AUC; sedimentation velocity, non-reducing: 50 mM HEPES-KOH, 100 mM KCl pH 7.2, no TCEP, 20 °C, 50,000 rpm; 50 µM WT, C50A, C26AC50A, 38 µM C26A; dimers are held by intermolecular disulphide bonds; both purified
[2] = target: human 4E-T(1-68) C26AC50A (human) (UniProt Q9NRA8); test: SEC; non-reducing: monomer fractions incubated 24 h at 20 °C in TCEP-free 50 mM HEPES-KOH pH 7.2 with KCl, Enrich SEC70 column, 20 °C; dimers are held by intermolecular disulphide bonds; both purified
[3] = target: human 4E-T(1-68) C26AC50A (human) (UniProt Q9NRA8); test: SEC; reducing: samples incubated with 2 mM TCEP in 50 mM HEPES-KOH pH 7.2 with KCl, Enrich SEC70 column, 20 °C; both purified
[4] = target: human 4E-T(1-68) C26AC50A (human) (UniProt Q9NRA8); test: SDS-PAGE without reducing agent; SDS-PAGE in the absence of reducing agent of the h4E-T(1-68) variants incubated without TCEP; shows covalent (disulphide) dimers; both purified
[5] = target: human 4E-T(1-68) C26A (human) (UniProt Q9NRA8); test: AUC; sedimentation velocity, reducing: 50 mM HEPES-KOH, 100 mM KCl pH 7.2, 1 mM TCEP, 20 °C, 50,000 rpm; 50 µM WT and C50A, 38 µM C26A; both purified
[6] = target: human 4E-T(1-68) C26A (human) (UniProt Q9NRA8); test: SEC; reducing: samples incubated with 2 mM TCEP in 50 mM HEPES-KOH pH 7.2 with KCl, Enrich SEC70 column, 20 °C; both purified
[7] = target: human 4E-T(1-68) C50A (human) (UniProt Q9NRA8); test: as above

binding [1]: no binding (tested: 50 µM)
binding [2]: no binding
binding [3]: no binding
binding [4]: no binding
B1: human 4E-T(1-68) C26AC50A (domain or fragment, UniProt Q9NRA8 1-68)
chain: MDRRSMGETESGDAFLDLKKPPASKAPHRYTKEELLDIKELPHSKQRPSALSEKYDSDGVWDPEKWHA

binding [6]: no binding (condition: with 2 mM TCEP)
B2: human 4E-T(1-68) C26A (domain or fragment, UniProt Q9NRA8 1-68)
chain: B1 chain with A50C
binding [5]: no binding (condition: with 1 mM TCEP; 38 µM)

binding [7]: no binding (condition: with 2 mM TCEP)
B3: human 4E-T(1-68) C50A (domain or fragment, UniProt Q9NRA8 1-68, looked up)
chain: B1 chain with A26C
notes: human 4E-Transporter (4E-T), N-terminal fragment, residues 1-68; Without TCEP the samples are a mixture of monomer and disulphide-linked dimer; also called C50A mutant

Reference: paper PMC10618305, “An intramolecular disulphide bond in human 4E-T affects its binding to eIF4E1a protein” (European Biophysics Journal, 2023)
